Data on two substances can be found in publication doi:10.1101/2023.08.20.554038.

By UniProt entry, the sequences of proteins in these tests, tags left out.
UniProt P12367: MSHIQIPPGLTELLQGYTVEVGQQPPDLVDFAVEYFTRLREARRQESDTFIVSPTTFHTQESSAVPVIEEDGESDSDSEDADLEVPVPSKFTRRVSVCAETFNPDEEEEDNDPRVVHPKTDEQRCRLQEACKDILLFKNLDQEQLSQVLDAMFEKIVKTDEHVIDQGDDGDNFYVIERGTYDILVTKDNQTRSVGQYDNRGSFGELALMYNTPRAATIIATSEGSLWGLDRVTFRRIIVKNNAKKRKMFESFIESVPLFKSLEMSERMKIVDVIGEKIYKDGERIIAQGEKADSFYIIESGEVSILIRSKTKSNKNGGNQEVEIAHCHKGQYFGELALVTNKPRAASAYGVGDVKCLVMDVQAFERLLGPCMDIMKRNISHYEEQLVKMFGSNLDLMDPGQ
UniProt P24588: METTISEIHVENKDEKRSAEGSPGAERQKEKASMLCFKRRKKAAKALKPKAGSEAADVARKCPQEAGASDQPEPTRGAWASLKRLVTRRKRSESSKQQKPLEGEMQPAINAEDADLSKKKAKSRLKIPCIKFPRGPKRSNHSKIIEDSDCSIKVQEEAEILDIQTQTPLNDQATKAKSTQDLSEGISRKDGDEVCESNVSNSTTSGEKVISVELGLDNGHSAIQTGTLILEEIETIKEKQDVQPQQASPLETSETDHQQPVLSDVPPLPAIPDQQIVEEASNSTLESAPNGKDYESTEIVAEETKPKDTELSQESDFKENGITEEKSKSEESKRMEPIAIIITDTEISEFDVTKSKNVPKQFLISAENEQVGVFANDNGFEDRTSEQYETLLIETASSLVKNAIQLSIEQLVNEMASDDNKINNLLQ
UniProt Q9Y490: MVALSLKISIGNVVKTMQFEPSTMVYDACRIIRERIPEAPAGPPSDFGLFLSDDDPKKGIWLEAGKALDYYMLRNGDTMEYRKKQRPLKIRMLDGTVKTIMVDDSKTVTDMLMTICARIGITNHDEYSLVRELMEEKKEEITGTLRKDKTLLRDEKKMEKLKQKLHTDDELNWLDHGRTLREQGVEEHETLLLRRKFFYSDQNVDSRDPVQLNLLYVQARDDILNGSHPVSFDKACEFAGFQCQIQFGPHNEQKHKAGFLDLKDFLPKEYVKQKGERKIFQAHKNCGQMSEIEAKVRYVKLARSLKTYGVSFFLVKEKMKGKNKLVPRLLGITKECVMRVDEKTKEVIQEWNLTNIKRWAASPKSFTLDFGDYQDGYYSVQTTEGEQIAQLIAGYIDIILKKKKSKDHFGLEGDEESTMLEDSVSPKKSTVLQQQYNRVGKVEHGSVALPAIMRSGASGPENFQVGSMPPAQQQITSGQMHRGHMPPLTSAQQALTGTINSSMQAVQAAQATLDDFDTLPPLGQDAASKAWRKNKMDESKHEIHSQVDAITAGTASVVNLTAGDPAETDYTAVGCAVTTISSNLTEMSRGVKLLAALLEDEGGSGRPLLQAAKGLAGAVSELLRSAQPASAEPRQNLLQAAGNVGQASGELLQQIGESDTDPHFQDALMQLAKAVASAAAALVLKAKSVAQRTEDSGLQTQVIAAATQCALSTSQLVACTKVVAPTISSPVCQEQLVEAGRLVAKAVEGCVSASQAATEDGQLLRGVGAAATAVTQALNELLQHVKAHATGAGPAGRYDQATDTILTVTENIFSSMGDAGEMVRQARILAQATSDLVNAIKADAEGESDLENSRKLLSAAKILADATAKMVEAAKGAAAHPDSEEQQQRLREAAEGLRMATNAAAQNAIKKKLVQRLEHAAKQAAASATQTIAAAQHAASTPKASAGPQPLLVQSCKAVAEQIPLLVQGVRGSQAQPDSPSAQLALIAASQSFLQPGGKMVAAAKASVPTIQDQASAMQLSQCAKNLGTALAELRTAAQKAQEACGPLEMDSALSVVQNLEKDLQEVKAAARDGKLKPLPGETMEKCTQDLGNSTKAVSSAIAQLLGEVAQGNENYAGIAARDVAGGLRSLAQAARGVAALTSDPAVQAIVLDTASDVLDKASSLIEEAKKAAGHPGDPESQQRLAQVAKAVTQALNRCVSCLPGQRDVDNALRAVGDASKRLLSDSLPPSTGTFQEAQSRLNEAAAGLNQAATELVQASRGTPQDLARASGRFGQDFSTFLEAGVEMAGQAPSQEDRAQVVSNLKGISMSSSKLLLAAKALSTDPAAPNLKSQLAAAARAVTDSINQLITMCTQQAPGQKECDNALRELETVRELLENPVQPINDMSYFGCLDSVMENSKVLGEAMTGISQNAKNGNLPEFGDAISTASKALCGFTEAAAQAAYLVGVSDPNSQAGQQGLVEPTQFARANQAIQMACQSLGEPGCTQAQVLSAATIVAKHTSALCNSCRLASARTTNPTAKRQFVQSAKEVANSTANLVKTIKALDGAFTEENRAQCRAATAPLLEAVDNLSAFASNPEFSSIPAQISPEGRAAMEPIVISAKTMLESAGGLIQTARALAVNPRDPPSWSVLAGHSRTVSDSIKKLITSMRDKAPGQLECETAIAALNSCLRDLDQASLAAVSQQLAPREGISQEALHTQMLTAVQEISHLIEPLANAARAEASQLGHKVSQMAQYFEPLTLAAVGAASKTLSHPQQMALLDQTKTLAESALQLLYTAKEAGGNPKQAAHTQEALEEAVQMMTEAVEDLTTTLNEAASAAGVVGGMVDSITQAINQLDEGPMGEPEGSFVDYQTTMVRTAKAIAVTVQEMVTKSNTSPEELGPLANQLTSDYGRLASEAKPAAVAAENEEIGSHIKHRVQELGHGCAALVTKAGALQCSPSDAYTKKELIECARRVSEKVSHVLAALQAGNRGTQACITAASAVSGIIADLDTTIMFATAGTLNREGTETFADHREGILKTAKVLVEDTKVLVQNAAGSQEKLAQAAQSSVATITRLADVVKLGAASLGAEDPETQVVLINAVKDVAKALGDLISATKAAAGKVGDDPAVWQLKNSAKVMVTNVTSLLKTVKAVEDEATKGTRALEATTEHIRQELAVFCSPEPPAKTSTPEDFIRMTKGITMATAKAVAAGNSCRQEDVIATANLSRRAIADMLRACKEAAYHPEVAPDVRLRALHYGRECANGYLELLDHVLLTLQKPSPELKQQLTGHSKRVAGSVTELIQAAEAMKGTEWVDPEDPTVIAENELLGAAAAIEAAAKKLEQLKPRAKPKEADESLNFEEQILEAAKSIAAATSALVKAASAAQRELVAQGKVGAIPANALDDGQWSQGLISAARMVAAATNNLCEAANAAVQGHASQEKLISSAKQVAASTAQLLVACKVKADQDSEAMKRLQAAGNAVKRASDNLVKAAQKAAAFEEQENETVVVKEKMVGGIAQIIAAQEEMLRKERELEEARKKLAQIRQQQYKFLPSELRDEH

The assay addresses V5 epitope-tagged murine PKA RIIα fused to miniTurbo biotin ligase (V5-RIIα-mTb), wild type (mouse) (UniProt P12367). The assay can be described thus: proximity labelling.

No constants are given. Whether binding was seen depends on the method and setting. In cells and extracts the contact can be indirect. Here binding means that the protein was enriched with, or labelled near, the bait; the list need not be complete.

For AKAP79 (from UniProt P24588 1-427), the binding result is “binds”. The entry for talin1 (from UniProt Q9Y490 1-2541) is “binds”.
